Results published in patent US20260216134A1, “CHARGED PI-CONJUGATED MOLECULES FOR THE TREATMENT OF MICROBIAL INFECTIONS” (priority 2023, published 2026).
At least one structure is not confirmed: it was looked up by name or label, or the drawing left a doubt.

System: MRSA USA300
Experiment: In vivo anti-infective activity in G. mellonella infected with MRSA
Parameters: species or system Galleria mellonella
Details: doses between 5 and 40 μM; vehicle-treated worms one day
Procedure: The in vivo anti-infective capacity of charged pi-conjugated compounds was evaluated in the invertebrate model G. mellonella infected with MRSA USA300. The survival curves shown in FIG. 21 illustrate the efficacy of two charged pi-conjugated compounds, BL 248 and BL 273, against MRSA USA300 infection in G. mellonella. With increasing concentrations of both molecules, there was a discernible improvement in survival compared with the vehicle-treated control group.
To evaluate the in vivo anti-infective activity of charged pi-conjugated compounds, MRSA USA300 was cultured overnight in tryptic soy broth and diluted to ~2×10^7 CFU mL^−1 in sterile phosphate-buffered saline based on OD600. Cohorts of five G. mellonella larvae (~300 mg each) were injected with 10 μL of the diluted bacterial suspension (2×10^5 […]) via the last left proleg, following larvae sterilization with 70% ethanol. One hour post-infection, the larvae were injected with increasing concentrations of charged pi-conjugated compounds or 1% DMSO (in PBS) as a negative control. Uninfected larvae were also used as controls. Larvae were incubated at 37° C., and survival was monitored afterward. Death was defined by complete melanization of the larval body and lack of movement in response to touch.

CN(C)C(=O)CN1c2ccc3ccccc3c2C(C)(C)C1/C=C/C1=CC(=C/C=C2/N(C)c3ccc4ccccc4c3C2(C)C)/CCC1.I (stereo not shown) [BL 248]
survival of infected worms: four or more days
